Experimental findings from article PMC12339387 are described below.

Chains of the proteins cited; added tags and fusions are not shown.
UniProt Q92793: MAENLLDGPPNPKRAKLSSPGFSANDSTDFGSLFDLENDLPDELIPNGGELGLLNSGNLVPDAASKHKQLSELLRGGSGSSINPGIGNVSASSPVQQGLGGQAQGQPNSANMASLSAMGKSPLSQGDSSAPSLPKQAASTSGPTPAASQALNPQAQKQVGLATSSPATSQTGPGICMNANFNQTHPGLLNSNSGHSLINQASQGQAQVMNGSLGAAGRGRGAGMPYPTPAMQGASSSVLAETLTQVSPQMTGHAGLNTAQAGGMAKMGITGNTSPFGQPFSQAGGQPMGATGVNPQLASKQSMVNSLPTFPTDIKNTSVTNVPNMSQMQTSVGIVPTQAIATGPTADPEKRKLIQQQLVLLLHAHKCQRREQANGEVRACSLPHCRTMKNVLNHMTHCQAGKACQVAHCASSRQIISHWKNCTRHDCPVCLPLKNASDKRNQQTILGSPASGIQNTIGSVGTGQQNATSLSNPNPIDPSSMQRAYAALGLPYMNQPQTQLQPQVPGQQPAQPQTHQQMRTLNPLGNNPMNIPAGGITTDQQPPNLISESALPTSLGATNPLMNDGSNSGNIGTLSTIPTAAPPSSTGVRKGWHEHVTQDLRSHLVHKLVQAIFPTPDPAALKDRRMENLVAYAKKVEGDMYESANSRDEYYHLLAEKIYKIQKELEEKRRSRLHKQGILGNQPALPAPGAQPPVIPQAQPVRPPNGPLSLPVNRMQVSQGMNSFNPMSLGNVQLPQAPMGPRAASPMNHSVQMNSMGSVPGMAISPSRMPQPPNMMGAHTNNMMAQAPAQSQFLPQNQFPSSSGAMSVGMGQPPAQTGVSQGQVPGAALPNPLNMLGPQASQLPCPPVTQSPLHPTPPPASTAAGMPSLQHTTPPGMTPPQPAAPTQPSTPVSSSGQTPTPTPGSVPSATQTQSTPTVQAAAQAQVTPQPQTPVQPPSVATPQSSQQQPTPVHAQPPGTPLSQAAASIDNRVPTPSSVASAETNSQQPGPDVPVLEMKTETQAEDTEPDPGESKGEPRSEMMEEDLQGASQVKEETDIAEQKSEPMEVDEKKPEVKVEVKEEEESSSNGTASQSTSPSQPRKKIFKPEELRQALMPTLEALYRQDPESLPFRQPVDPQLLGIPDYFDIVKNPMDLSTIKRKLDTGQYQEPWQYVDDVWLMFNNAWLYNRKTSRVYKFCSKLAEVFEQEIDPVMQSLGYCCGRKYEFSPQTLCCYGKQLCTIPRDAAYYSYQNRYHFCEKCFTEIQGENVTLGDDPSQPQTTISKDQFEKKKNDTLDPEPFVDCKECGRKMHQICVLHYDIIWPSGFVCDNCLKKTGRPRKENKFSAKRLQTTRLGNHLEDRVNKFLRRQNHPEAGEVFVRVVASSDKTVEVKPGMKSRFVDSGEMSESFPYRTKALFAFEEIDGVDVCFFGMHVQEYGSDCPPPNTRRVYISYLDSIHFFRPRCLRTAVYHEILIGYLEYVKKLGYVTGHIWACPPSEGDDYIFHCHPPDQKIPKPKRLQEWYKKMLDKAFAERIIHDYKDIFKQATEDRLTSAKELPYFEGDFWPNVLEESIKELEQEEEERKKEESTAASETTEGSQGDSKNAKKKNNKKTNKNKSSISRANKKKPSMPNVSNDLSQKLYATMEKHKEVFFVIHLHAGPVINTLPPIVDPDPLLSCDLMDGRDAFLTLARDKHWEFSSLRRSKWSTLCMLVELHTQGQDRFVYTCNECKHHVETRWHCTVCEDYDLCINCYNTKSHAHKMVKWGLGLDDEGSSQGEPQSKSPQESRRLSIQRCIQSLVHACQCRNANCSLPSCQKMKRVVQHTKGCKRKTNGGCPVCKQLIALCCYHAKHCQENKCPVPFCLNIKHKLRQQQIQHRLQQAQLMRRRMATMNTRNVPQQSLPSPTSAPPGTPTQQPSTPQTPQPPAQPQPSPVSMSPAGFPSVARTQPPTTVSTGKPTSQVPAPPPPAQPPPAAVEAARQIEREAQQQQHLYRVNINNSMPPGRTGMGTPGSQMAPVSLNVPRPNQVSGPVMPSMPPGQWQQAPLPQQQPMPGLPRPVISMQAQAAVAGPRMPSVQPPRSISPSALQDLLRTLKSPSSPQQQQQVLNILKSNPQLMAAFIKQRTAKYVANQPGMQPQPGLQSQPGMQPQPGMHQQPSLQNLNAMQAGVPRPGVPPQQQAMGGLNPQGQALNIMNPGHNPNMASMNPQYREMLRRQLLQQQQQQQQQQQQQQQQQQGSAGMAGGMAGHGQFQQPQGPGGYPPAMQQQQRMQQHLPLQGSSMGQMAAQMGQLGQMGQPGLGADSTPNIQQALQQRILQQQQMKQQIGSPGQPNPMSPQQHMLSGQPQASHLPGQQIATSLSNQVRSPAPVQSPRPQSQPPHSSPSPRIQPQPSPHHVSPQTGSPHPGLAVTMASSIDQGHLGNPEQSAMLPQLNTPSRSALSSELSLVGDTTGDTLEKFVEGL
UniProt Q09472: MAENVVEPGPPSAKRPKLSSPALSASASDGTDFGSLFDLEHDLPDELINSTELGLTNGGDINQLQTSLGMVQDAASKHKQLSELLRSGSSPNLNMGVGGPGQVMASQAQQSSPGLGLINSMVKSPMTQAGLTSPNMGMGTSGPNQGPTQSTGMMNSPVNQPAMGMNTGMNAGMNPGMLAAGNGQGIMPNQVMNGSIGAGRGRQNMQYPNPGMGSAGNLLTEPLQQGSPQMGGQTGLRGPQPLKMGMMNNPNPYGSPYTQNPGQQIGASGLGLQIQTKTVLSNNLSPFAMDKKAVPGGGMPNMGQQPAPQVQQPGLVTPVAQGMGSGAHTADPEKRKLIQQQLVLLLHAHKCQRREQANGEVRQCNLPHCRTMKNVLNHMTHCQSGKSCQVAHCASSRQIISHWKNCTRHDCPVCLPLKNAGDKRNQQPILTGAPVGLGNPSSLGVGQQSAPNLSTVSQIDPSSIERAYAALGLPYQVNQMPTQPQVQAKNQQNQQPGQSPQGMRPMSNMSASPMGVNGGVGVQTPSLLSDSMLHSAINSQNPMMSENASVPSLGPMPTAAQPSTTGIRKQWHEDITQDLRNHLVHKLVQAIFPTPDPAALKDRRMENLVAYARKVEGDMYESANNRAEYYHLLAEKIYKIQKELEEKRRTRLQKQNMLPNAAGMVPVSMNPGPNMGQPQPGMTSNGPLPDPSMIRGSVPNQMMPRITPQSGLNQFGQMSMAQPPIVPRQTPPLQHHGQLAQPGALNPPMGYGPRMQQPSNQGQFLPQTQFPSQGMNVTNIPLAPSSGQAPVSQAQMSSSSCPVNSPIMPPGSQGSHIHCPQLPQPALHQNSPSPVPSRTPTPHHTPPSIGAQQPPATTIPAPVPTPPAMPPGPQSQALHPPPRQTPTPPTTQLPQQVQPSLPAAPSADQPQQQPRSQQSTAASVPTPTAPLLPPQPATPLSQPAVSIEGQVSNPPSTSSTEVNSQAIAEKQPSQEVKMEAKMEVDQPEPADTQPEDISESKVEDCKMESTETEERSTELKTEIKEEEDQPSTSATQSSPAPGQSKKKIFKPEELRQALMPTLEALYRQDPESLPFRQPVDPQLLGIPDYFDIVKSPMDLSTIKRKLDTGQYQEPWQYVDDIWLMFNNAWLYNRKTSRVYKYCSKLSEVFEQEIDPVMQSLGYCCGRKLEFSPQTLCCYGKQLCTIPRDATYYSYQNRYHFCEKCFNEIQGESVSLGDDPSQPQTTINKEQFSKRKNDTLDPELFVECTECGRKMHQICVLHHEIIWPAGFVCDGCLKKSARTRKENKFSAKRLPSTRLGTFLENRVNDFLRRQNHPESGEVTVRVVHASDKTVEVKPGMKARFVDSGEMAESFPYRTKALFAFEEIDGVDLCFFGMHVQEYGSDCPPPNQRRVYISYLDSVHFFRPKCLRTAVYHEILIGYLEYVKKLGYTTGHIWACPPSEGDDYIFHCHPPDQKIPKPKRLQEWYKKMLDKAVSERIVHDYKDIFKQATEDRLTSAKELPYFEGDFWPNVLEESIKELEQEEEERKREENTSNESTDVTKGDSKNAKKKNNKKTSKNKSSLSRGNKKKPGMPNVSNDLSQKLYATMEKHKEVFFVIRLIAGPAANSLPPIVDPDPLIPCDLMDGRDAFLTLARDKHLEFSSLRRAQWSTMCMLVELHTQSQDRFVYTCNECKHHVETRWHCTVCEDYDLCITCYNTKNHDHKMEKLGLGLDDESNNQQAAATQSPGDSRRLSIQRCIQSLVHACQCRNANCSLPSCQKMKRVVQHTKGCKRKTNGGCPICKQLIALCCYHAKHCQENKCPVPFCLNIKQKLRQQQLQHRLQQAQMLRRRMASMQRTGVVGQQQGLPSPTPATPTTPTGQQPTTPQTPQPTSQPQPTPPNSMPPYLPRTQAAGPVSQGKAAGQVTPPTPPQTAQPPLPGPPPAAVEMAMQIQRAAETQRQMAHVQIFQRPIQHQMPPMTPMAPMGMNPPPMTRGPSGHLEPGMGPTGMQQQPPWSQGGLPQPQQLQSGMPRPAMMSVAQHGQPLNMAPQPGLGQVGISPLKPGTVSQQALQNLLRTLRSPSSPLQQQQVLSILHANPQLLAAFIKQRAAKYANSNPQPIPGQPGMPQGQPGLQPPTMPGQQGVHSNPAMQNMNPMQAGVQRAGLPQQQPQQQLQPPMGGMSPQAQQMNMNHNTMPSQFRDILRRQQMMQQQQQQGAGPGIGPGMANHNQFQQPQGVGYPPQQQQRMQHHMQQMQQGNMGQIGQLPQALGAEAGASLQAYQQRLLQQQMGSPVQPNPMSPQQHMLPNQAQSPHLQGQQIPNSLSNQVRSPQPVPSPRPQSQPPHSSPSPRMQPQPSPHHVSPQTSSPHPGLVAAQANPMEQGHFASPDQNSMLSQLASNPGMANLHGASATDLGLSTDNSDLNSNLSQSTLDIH

Experiment [1] addresses T1, FOXA2 (stably overexpressed in LuNE cells) (human) (UniProt Q9Y261).
T1 sequence: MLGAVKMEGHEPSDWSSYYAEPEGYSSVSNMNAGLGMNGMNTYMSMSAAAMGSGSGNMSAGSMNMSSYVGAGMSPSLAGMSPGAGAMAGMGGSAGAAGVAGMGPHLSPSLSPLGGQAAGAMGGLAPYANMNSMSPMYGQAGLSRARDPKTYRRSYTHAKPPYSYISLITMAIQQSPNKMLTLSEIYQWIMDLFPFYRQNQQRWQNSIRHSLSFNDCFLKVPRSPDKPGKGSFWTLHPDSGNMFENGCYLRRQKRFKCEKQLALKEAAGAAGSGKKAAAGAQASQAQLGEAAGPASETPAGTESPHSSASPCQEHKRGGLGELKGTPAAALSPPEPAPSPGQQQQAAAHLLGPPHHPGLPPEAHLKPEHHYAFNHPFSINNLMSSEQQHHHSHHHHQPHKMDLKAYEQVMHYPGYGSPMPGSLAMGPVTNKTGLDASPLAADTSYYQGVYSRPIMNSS
Kind of experiment: co-IP; Co-IP from the nuclear fraction of LuNE cells (stable LNCaP+FOXA2), western blot (Fig. 7b); the precipitated proteins are not named in the legend.

The target of experiment [2] is T2, NKX2-1 (human (endogenous in NCI-H660 and LuNE)) (UniProt P43699).
T2 sequence: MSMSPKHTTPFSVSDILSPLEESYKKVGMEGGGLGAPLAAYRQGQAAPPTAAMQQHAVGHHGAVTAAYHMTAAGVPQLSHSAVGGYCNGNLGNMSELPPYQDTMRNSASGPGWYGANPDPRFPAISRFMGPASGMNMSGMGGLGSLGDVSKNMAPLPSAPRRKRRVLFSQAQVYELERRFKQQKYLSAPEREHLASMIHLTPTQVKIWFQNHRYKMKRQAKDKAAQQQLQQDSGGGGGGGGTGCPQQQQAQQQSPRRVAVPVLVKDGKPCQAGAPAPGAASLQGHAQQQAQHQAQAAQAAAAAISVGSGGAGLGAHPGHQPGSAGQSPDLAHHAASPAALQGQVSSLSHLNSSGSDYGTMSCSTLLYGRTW
The experiment is described as above.

In experiment [3] the target is T2, NKX2-1 (human (endogenous in NCI-H660 and LuNE)). Kind of experiment: co-IP; Co-IP from the nuclear fraction of NCI-H660 cells, western blot (Fig. 7c); the precipitated protein is not named in the legend. Background: Immunoblotting shows a protein as a band on a membrane.
Experiment [4] concerns the target T3, NKX2-1 (human (endogenous in NCI-H660 and LuNE)), P43699.
T3 chain: T2 sequence
The description is as above. The note with it: remark: other sources report otherwise.

The target of experiment [5] is T4, FOXA2 (human (endogenous in NCI-H660)), Q9Y261.
T4 chain: T1 sequence
Kind of experiment: co-IP; FOXA2 Co-IP from the nuclear fraction of NCI-H660 cells, western blot (Fig. 4c). The settings on record: remark: other sources report otherwise.

No constants are given. Whether binding was seen depends on the method and setting. Binding seen in cells or lysates may run through a third protein. Some results given as binding are weak or reduced against the parent protein; the word gives no strength.

In the case of “CREBBP (CBP) (from UniProt Q92793 1-2442) (enzyme)”, the binding result in experiment [1] and in experiment [2] was “binds” each time. For “EP300 (p300) (from UniProt Q09472 1-2414) (enzyme)”, the binding entry in experiment [3] and in experiment [2] was “binds” in each case.

B1: FOXA2, Q9Y261 1-457 (protein)
chain: T1 sequence
For B1, the binding entry in experiment [4] was “binds”.

B2: NKX2-1, P43699 1-371 (protein)
chain: T2 sequence
On to B2, for which, in experiment [5], the binding result is “binds”.
